PubChem BioAssay AID1259254, NCATS | 2017
This is a random part of about 59,000 reagents. About 1,550 of all reagents (2.6%) were called active. 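G2 share is only a proxy for re-replication; each gene was hit by three separate siRNAs, and active genes were retested.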 Entries without a mark were called inactive. Reagents against one gene are numbered here. Further read-outs or replicates are left out here. Reagent sequences are not shown. The record does not give: the amount of reagent.

Screen: 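Genome-wide screen for genes that prevent DNA re-replication in cancer cells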 (primary screen)
System: human HCT116 colorectal cancer cells
Knock-down reagent: single siRNA against human genes
Duration: 3 days
Detection: 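Imaged Hoechst DNA stain sorts each cell into a cycle phase by DNA amount; per plate, G2 fraction set to 0% for non-targeting and 100% for GMNN siRNA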
Scale: G2 robust z-score: higher = more G2 cells, more excess DNA replication
Active means: 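An siRNA counts as active if its G2 robust z-score lies at least 5 MADs above the screen median; here such calls match roughly 38% of GMNN control or more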

Silencing of C4orf33 #1 gave: G2 robust z-score -0.328. After knock-down of C4orf33 #2, the screen gave G2 robust z-score 0.616. Depletion of C4orf33 #3 came out at: G2 robust z-score -0.665. Against CLTC #1 the deposit lists G2 robust z-score 0.984. With knock-down of CLTC #2, the record shows G2 robust z-score 1.05. For CLTC #3, the entry reads G2 robust z-score 0.868.

Part of the list above in another layout.
Target gene	reagent	G2 robust z-score
C4orf33	3	-0.665
CLTC	1	0.984

The list goes on:
Silencing of ANKRD31 #1 gave: G2 robust z-score -0.439. Silencing of ANKRD31 #2 resulted in: G2 robust z-score -0.998. For ANKRD31 #3, the entry reads G2 robust z-score 3.83. For RHD #1, the entry reads G2 robust z-score 0.256. With knock-down of RHD #2, the record shows G2 robust z-score 1.53. After knock-down of RHD #3 the results were G2 robust z-score 0.259.

For TAMM41 #1, the entry reads G2 robust z-score -0.838. With knock-down of TAMM41 #2, the screen gave G2 robust z-score 3.32. With knock-down of TAMM41 #3 the results were G2 robust z-score 0.16. APOD #1 scored G2 robust z-score 0.19. APOD #2 showed G2 robust z-score -0.506. Depletion of APOD #3 gave: G2 robust z-score -1.14.
